Assay results reported in publication PMC4790305, “An FDA-Drug Library Screen for Compounds with Bioactivities against Meticillin-Resistant Staphylococcus aureus (MRSA)” (Antibiotics, 2015).
Where two headings read alike, the source gives them in different places.

System: Adult normal human epidermal keratinocytes (NHEK)
Assay: Human epidermal keratinocyte viability (GI50) assay
Format: cell-based
Description: Adult normal human epidermal keratinocytes (NHEK) were purchased from Lonza (catalog #00192627, Basel, Switzerland) and cultured in keratinocyte growth medium (Lonza KGM-Gold Bullet Kit) containing growth supplements (Lonza Reagent Pack) at 5% CO2 (37 °C). The cell viability assay was performed using the CellTiter-Glo Luminescent Cell Viability Assay protocol from Promega (www.promega.com, Fitchburg, WI, USA). Briefly, NHEK were treated with test compounds in keratinocyte growth medium in 96-well plates (Thermo Scientific Nunclon Delta, Waltham, MA, USA). Treated cells were incubated for 5 days at 5% CO2 (37 °C). Promega CellTiter-Glo Reagent was added and plates were shaken on an orbital shaker for […]. Next, well contents (100 μL) from each well were transferred into opaque 96-well plates (PerkinElmer OptiPlate-96) and luminescence measured by a microplate reader (Tecan Safire2).

Row | Compound | fold difference of keratinocyte GI50 compared to MIC against MRSA | fold difference of keratinocyte GI50 compared to MIC against MRSA (GI50 vs MIC (5-Fluorouracil: MIC 6.25 μM; Gemcitabine: MRSA USA300 MIC 0.05 μM))
1 | O=c1[nH]cc(F)c(=O)[nH]1 [5-fluorouracil, 5-Fluorouracil] | five-fold | 
2 | Nc1ccn([C@@H]2O[C@H](CO)[C@@H](O)C2(F)F)c(=O)n1 [Gemcitabine] |  | ~40 fold
